Measurements as given in the supplement of paper PMC4683952.
Among all 1,200 compounds or so, about 50 (4%) showed activity. No stated cut-off is given here; in the data, all actives reach 1.3 or more but so do some inactives. This is one part of the list.

These compounds were tested on Lgr5 (MarsCy1-Lgr5-EGFP, U2OS) (assay: cell-surface Lgr5 expression (SCi1 fluorescence, background-subtracted) relative to WT DMSO (fold of DMSO control); higher = more Lgr5 at the plasma membrane, active = hit call of the paper). Conditions: U2OS MarsCy1-Lgr5-EGFP stable; treatment time: overnight; 16 µM; library: Johns Hopkins Clinical Compound Library.

Compound | cell-surface Lgr5 expression
O=C(O)CCc1cc(I)c(Oc2ccc(O)c(I)c2)c(I)c1 [Thyropropic acid (3,3',5-triiodothyropropionic acid)] | inactive: 0.877
Nc1ccc(S(=O)(=O)Nc2ccccn2)cc1 [Sulfapyridine] | inactive: 0.968
Nc1ccn([C@@H]2O[C@H](CO)[C@@H](O)[C@@H]2O)c(=O)n1 [Cytarabine (Cytosine 1-b-D-arabinofuranoside)] | inactive: 0.815
COc1ccnc(C[S+]([O-])c2nc3cc(OC(F)F)ccc3[nH]2)c1OC (stereo not drawn) [Pantoprazole] | inactive: 1.01
C[C@@H]1C[C@H]2[C@@H]3C[C@H](F)C4=CC(=O)C=C[C@]4(C)[C@@]3(F)[C@@H](O)C[C@]2(C)[C@@]1(O)C(=O)COC(=O)C(C)(C)C [Flumethasone pivalate] | active: 1.37
C[N+](C)(C)[C@@H](Cc1c[nH]c(=S)[nH]1)C(=O)[O-] [Ergothioneine] | inactive: 0.399
O=c1ccc2ccccc2o1 [Coumarin] | inactive: 0.988
CN(C)CCCN1c2ccccc2Sc2ccc(Cl)cc21 [Chlorpromazine] | inactive: 0.872
COc1ccc(CC2c3cc(OC)c(OC)cc3CC[N+]2(C)CCC(=O)OCCCCCOC(=O)CC[N+]2(C)CCc3cc(OC)c(OC)cc3C2Cc2ccc(OC)c(OC)c2)cc1OC (stereo not drawn) [Atracurium besylate] | inactive: 0.941
CC(=O)[C@H]1CC[C@H]2[C@@H]3CC=C4C[C@@H](O)CC[C@]4(C)[C@H]3CC[C@]12C [PREGNENOLONE (5-Pregnen-3B-ol-20-one)] | inactive: 0.861
O=CC(O)C(O)C(O)C(O)CO (stereo not drawn) [Glucose (D)] | inactive: 1.02
O=P([O-])([O-])[O-].O=P([O-])([O-])[O-].[Mg+2].[Mg+2].[Mg+2] [Magnesium phosphate hydrate] | inactive: 0.899
CC(C)(C)c1ccc(C(O)CCCN2CCC(C(O)(c3ccccc3)c3ccccc3)CC2)cc1 (stereo not drawn) [Terfenadine] | inactive: 1.28
O=c1[nH]c(=O)n([C@H]2C[C@H](O)[C@@H](CO)O2)cc1Br | inactive: 1.25
CCCCC1(COC(=O)CCC(=O)O)C(=O)N(c2ccccc2)N(c2ccccc2)C1=O [Suxibuzone] | inactive: 1.14
COc1cc(NC(C)CCCN)c2ncccc2c1 (stereo not drawn) [Primaquine] | inactive: 0.511
CCCCNc1c(C(=O)OCC)c(C)nc2c1cnn2CC [Tracazolate] | inactive: 0.998
CC[N+](CC)(CC)CC(=O)Nc1c(C)cccc1C [Lidocaine N-ethyl bromide] | active: 1.39

Three structures already listed, sorted by heavy-atom count, smallest number first:
Compound | cell-surface Lgr5 expression
Nc1ccn([C@@H]2O[C@H](CO)[C@@H](O)[C@@H]2O)c(=O)n1 [Cytarabine (Cytosine 1-b-D-arabinofuranoside)] | inactive: 0.815
COc1ccnc(C[S+]([O-])c2nc3cc(OC(F)F)ccc3[nH]2)c1OC (stereo not drawn) [Pantoprazole] | inactive: 1.01
CCCCC1(COC(=O)CCC(=O)O)C(=O)N(c2ccccc2)N(c2ccccc2)C1=O [Suxibuzone] | inactive: 1.14
